Assay results reported in PubChem BioAssay AID1347075 (National Center for Advancing Translational Sciences (NCATS), 2019).
“And” between values parts separate entries of the source, which are not always exact repeats. Equal entries are not always repeated. Among all 400,000 compounds or so, about 5,500 (1.4%) were called active. The inconclusive results got no clear call from the source; some entries with a clear call stand among them for comparison. Calls come from the whole dose curve; as a rule, active = well fitted cell-killing curve with a large enough effect; inconclusive = small, poorly fitted or top-dose-only effect, or effect the other way; inactive = flat fitted curve, though single readings scatter. A potency beside an inconclusive call is a rough fit, not a confirmed value.

Experiment: qHTS assay for MDR1-selective chemotherapeutics: Primary screen using the parental adenocarcinoma cell KB-3-1; note: nearly all actives have a fitted effect of over 60% in size
Details: KB-3-1 viability, CellTiter-Glo ATP luminescence, 72 h; series mostly up to 46.1 µM
Summary of the method: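 KB-3-1 parental drug-naive adenocarcinoma cells in DMEM/10% FBS, incubated 72 h at 37 C with pin-transferred compounds across a concentration series. Viability by CellTiter-Glo luminescence; concentration-response curves fitted after normalization.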
Potency is the fitted concentration of half-maximal effect.

Structure (SMILES) | Potency
c1ccc(-c2noc(CN3CCN(c4cnccn4)CC3)n2)cc1 | inactive
O=S(=O)(c1ccccc1)c1nc(-c2ccco2)oc1NCCN1CCOCC1 | inconclusive: 18.4 µM [cytotoxic, single point]
CC(=NNC(=S)N1CCCC1)c1ccccn1 | inconclusive: 14.6 µM [cytotoxic, partial curve, poor fit]
C#CCN(C[C@@H](CC(C)C)NC(=O)OC(C)(C)C)S(=O)(=O)c1ccc(Br)cc1F | inconclusive: 32.6 µM [cytotoxic, single point]
CC(=O)N1CCCc2cc(S(=O)(=O)N3CCCC(C(=O)NCc4ccc(Cl)cc4)C3)ccc21 (stereo not given) | inconclusive: 29.1 µM [cytotoxic, single point]
CC(=O)Nc1cccc(-c2ccnc3c2CC(C(=O)Nc2cccc(Oc4ccccc4)c2)O3)c1 (stereo not given) | inconclusive: 29.1 µM [cytotoxic, single point]
CCN1/C(=C/c2ccc3ccc(C)cc3[n+]2CC)Sc2ccccc21 | active: 2.59 µM
Cc1ccc(C(=O)CCC(=O)N2CCN(C(=O)c3ccco3)CC2)cc1 | inactive
COc1ccc(C(=O)Nc2nc(C)cs2)cc1S(=O)(=O)N1CCCC1 | inconclusive: 23.1 µM [rising, single point]
CC(C)CN(CC(C)C)C(=O)Cc1coc2ccc3ccccc3c12 | inconclusive: 25.9 µM [cytotoxic, single point]
COCCCNC(=O)c1c(N)n(/N=C/c2cccnc2)c2nc3ccccc3nc12 | inactive
COc1ccc(NC(=O)Nc2ccc3c(c2)C(=O)N([C@H](C)CO)C[C@H](C)[C@@H](CN(C)Cc2ccc(Cl)c(Cl)c2)OCCCC[C@@H](C)O3)cc1 | inactive
Cc1ccc(O)c(C(=O)CC(=O)c2ccccc2Cl)c1 | inconclusive: 16.4 µM [cytotoxic, single point]
CC(NC(=O)CNC(=O)C1CCCCC1)c1ccc(S(N)(=O)=O)cc1 (stereo not given) | inactive
CC1=C(n2nnc3ccccc32)C(c2ccccc2)C(C#N)=C(N)O1 (stereo not given) | inactive
COc1ccccc1CN(C)C(=O)c1ccc(S(=O)(=O)Nc2c(C)n(C)n(-c3ccccc3)c2=O)cc1 | inconclusive: 29.1 µM [rising, partial curve, poor fit]
O=C(C[C@H]1C/C=C\C[C@H](Cc2ccc(F)cc2)C(=O)O[C@@H](c2ccccc2)CNC1=O)NCCO | inconclusive: 20.6 µM [rising, partial curve, poor fit]
Cc1cccc(-c2ccc3ncnc(NCc4cccs4)c3c2)c1 | active: 13 µM
Cc1cc(NC2CCCCC2)nc(NCc2ccccc2)n1 | inconclusive: 18.4 µM [cytotoxic, single point]
CCCn1nc(C(=O)Nc2nc(-c3ccccn3)cs2)c2ccccc2c1=O | inconclusive: 18.4 µM [cytotoxic, single point]

Structure (SMILES) | Potency
COC(=O)[C@]12CCCCC=C1N(Cc1ccc3c(c1)OCO3)C(=O)[C@H](CC(=O)NCC13CC4CC(CC(C4)C1)C3)C2 | inconclusive: 29.1 µM [cytotoxic, single point]
Cc1cccc(Cn2c(C)c(C)c3cc(C(=O)NCc4ccc(C)o4)ccc32)c1 | inconclusive: 25.9 µM [cytotoxic, single point]
Cc1cc(NC(=O)CN(C)S(=O)(=O)c2ccc3c(c2)CCC(=O)N3)ccc1Br | inconclusive: 16.4 µM [cytotoxic, partial curve, poor fit]
CCOc1ccc(CCNC(=O)c2cc3c(-c4cccc(OC)c4)nn(C)c3s2)cc1OCC | inconclusive: 20.6 µM [cytotoxic, single point]
CCOc1ccc(N(CC(=O)Nc2cccc(F)c2)S(=O)(=O)c2c(C)noc2C)cc1 | active: 20.6 µM
N#CCSc1nnc(SCC#N)s1 | inactive
CC1CCCN(S(=O)(=O)c2ccc(C(=O)Nc3nnc(C4CC4)o3)cc2)C1 (stereo not given) | inconclusive: 13 µM [cytotoxic, partial curve]
Cn1nc(C(F)(F)F)c2cc(C(=O)Nc3ccc(Cl)cc3)sc21 | inconclusive: 16.4 µM [cytotoxic, single point]
CN(c1ccc(Cl)cc1)c1cc(=O)n(C)c2ccccc12 | inconclusive: 35.5 µM [cytotoxic, single point]
Cc1ccc2occ(/C=N/NC(=O)c3ccccc3C)c(=O)c2c1 | inconclusive: 18.4 µM [cytotoxic, single point]
Cc1nn2c(-c3cccc(NC(=O)CSc4nc5ccccc5o4)c3)nnc2c2ccccc12 | inactive
Cc1cccc(C(CC(=O)NCC2(c3ccccc3)CCCC2)c2ccccc2)c1O (stereo not given) | inconclusive: 29.1 µM [cytotoxic, single point]
Cc1nc2c(C(=O)Nc3ccc(N4CCCC(O)C4)cc3)snc2c(=O)[nH]1 (stereo not given) | inconclusive: 3.66 µM [rising, full curve]
CCN(CC)c1nc2ccccc2c(N)c1-c1ccccc1 | inconclusive: 32.6 µM [cytotoxic, single point]
CCN(C[C@H]1N[C@@](Cc2ccccc2)(C(=O)OC)[C@H]2C(=O)N(C)C(=O)[C@@H]12)S(=O)(=O)c1ccc(C(F)(F)F)cc1 | inactive
CC1CCN(S(=O)(=O)c2ccc3nc(-c4ccccn4)cc(C(=O)NCCN(C)Cc4ccccc4)c3c2)CC1 | inconclusive: 20.6 µM [cytotoxic, single point]
COc1ccc(S(=O)(=O)N2CCC(Nc3ccccc3Cl)CC2)cc1 | inconclusive: 32.6 µM [cytotoxic, single point]
Cc1cc(C)c2c(c1)N[C@H](c1cccs1)[C@@H]1CCO[C@H]21 | inconclusive: 0.13 µM [rising, single point]
O=C1CCN(CCc2ccccc2)CCN1[C@H](CSc1ccccc1)c1ccccc1 | inconclusive: 23.1 µM [cytotoxic, single point] and inconclusive: 29.1 µM [cytotoxic, single point]
Fc1ccc(NC(=S)Nc2ccc(Cl)cc2Cl)cc1 | inconclusive: 29.1 µM [cytotoxic, single point]

Two entries from above, with each value named.
Cc1nn2c(-c3cccc(NC(=O)CSc4nc5ccccc5o4)c3)nnc2c2ccccc12
  Potency: inactive
Cc1cccc(C(CC(=O)NCC2(c3ccccc3)CCCC2)c2ccccc2)c1O (stereo not given)
  Potency: inconclusive: 29.1 µM [cytotoxic, single point]
